The target of assay [1] is FLAG-FlgX (Campylobacter jejuni 81-176). The assay is described as follows: co-IP; C. jejuni cells cross-linked with 0.1% formaldehyde, quenched with glycine, osmotically lysed, solubilised with Triton X-100; FLAG-tagged FlgX precipitated overnight at 4°C with anti-FLAG M2 affinity gel resin, 3 washes with RIPA buffer; preys detected by immunoblot with specific antisera; strains ΔflgX, ΔflgX ΔmotB, ΔflgX ΔmotA and ΔflgX motA_(H138Y). (In western blotting, separated proteins are transferred to a membrane and probed.)

Assay [2] concerns the target FlgX-FLAG (Campylobacter jejuni 81-176). Described as above.

These are yes or no findings as the source states them, for the method shown. In cells and extracts the contact can be indirect. A result given as binding can be weak or reduced; the word gives no strength.

Data on two molecules can be found in publication PMC6686046.

B1: MotB (protein, UniProt Q0PBH3 1-247)
chain: MAKKHKCPECPAGEKWAVPYADFLSLLLALFIALWAISKTNPAKVEALKTEFVKIFDYTSTQTVKEESKTQEKYKGAAKEESDELKSLKQMTMTQQETIKRLQAALDQSDNQVALNLPSKVEFERGSAQIVSADIQDYLKRMAELTTYLPPQAKIEIRGYTDNSDSIIRSYELAYQRAENVLKYFIEGGANLKNISIKSYGLNNPINGNPQTLENNRVEIYFKVDTADTSTQKSVLELINKIGTKAP
For the molecule B1, the binding entry in assay [1] and in assay [2] was “binds” in each case.

B2: FliF MS ring protein (protein, UniProt Q0PBJ1 1-560)
chain: MDFKNMLHQIGQLYQNLTRKQRIVIAASIIVVVGFLVFLALFRGSGSNANNGYAVLVENVSPSSSAAIVAKLEQNNIPYKLESENKILVPQDQVYRQRMFIASEGLIKDSRVGFEAFDTQAFGATNEEQKVKYQRAIEGELARTIETLEPIRSAVVHIAFPKDSVFTERQIPPTASVVVNVREGLKLTRKQIDGIKNIVSAAVPKLTKENVKISDQSGVPLDEQEAYEDDLVRAQIKFKSDQEKALEDKIIENLAPFAGGMDKVKVSVNIDFDFSKQESQSEIYDPNPIVRSEQTLNEERTGRKDPEIQGVPGAVSNIGPVEGLDNKGQIDTYKKNQVTTNNELSKTITNTKKQFATVLRTSAAVTIDGKYQDVVDENGDVKSEYVPLTKEELASVESIVKNTINFSATRGDSVVVQNLPFHRESIRVESKVKTFYNRFVEPFIPPVKYFIAAILLFIFYKKVIAPFTQKMLEDVAAQEEMQQGPNAVLDDAEDALEKFNAARKKVEEQLGFGDNFNEDSIQYEVLLEKLRGLVSDKGEEIAALLQNLIQNDSEFGEKDM
As for B2, the binding entry in assay [1] and in assay [2] was “no binding” each time.
